Values of other authors as cited in patent publication US9180191B2, “Treatment of suicidal ideation or behavior using inhibitors of nicotinic acetylcholine receptors” (UNIVERSITY OF SOUTH FLORIDA, priority 2009, dated 2015).
At least one structure is not confirmed: it was looked up by name or label, or the drawing left a doubt.

System: brain-derived neurotrophic factor (BDNF)
Details: in vivo

CN1CCN(C2=Nc3cc(Cl)ccc3Nc3ccccc32)CC1 [clozapine]
effect on brain BDNF levels: increase brain BDNF levels
